According to patent US10383865B2, “Pharmaceutical combination composition comprising complex formulations of Ivacaftor and Lumacaftor and their salts and derivatives, process for their preparation thereof and pharmaceutical compositions containing them” (Druggability Technologies IP Holdco Limited, priority 2016, dated 2019):
Some of these results come from one statement about several compounds together.

Test: Comparative apparent solubility test (100 nm filtration, UV-VIS or RP-HPLC)
Format: physicochemical
Conditions: FIG. 17
Protocol: The apparent solubility was measured by UV-VIS spectroscopy or RP-HPLC at room temperature. The samples were dispersed in ultrapurified water in 1-20 mg/mL active ingredient equivalent concentration range. The resulting solutions were filtered by 100 nm disposable syringe filter. The active ingredient content in the filtrate was measured by UV-Vis spectrophotometry or RP-HPLC and the apparent solubility was calculated. The filtrate may contain particles which could not be filtrated out using 100 nm pore size filter.

## CC(C)(C)c1cc(C(C)(C)C)c(NC(=O)c2c[nH]c3ccccc3c2=O)cc1O
  comparative apparent solubility of Ivacaftor formulations: below 0.1 mg/mL
